{"sequences": {"note": "Protein sequences, listed by entry. Tags and fused reporters are not part of them. Residues count along the entry.", "UniProt Q9BZS1, 182-431, stated change not applied": "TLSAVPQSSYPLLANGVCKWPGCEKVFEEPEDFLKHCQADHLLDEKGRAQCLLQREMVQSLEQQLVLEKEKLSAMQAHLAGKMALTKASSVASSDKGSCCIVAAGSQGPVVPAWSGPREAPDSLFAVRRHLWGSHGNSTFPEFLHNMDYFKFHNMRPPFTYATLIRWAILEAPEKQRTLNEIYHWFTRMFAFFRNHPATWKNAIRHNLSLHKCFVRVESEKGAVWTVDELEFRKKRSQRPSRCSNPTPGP", "UniProt Q9BZS1, 122-431, stated change not applied": "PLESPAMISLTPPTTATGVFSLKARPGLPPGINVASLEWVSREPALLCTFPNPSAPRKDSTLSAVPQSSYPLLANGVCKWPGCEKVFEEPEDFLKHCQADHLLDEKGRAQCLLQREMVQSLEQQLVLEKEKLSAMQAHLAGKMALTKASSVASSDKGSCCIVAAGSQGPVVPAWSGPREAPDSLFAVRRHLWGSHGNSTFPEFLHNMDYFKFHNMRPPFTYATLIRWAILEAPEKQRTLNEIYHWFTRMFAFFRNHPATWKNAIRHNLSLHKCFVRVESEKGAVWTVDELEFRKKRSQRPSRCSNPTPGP", "UniProt Q9BZS1, 182-336, stated change not applied": "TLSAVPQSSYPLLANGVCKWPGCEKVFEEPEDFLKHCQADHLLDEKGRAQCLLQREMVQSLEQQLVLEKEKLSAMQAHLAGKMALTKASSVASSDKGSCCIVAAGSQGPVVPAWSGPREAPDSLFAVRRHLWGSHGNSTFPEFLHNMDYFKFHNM", "UniProt Q9BZS1, 182-431 C204S": "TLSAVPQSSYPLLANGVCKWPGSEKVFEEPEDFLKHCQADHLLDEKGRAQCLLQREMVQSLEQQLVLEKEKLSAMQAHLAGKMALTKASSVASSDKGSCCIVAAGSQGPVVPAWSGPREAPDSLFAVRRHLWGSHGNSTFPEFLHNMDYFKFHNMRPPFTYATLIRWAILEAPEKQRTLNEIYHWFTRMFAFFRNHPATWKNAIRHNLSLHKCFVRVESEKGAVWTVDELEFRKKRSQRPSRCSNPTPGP", "UniProt P58462, whole entry": "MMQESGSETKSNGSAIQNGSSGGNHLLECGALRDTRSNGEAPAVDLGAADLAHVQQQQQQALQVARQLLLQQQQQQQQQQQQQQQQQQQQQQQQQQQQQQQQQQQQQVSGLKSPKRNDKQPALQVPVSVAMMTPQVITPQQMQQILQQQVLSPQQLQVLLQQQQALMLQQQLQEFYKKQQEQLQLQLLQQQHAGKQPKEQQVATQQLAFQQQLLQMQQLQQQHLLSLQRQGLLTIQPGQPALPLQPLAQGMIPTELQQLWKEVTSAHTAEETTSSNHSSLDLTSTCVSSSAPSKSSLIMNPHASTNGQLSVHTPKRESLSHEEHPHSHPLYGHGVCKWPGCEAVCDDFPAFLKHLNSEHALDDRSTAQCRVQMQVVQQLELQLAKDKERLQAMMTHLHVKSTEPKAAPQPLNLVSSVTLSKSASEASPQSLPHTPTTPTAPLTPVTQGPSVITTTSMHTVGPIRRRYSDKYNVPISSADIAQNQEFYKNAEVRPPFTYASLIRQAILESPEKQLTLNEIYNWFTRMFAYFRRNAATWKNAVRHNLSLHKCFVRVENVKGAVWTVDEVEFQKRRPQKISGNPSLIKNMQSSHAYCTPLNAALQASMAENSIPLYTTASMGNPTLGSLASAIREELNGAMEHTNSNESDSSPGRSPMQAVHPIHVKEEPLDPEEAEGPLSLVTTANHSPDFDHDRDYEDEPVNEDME"}, "source": "paper PMC2779587", "about": "“Domain Requirements and Sequence Specificity of DNA Binding for the Forkhead Transcription Factor FOXP3”", "test_in_all_cases": "EMSA", "key": {"Foxp1-ΔN (mouse)": {"test_system": "Foxp1-ΔN (mouse)", "details": "12 mM HEPES pH 7.5, 100 mM NaCl, 1 mM DTT, 1 mM EDTA, 12% glycerol, 20 µg/ml poly(dI)-poly(dC), room temperature 20 min, protein translated in vitro, label: 32P 5' end"}, "FOXP3-ΔN (human)": {"biological_target": "FOXP3-ΔN (human) (UniProt Q9BZS1)", "details": "12 mM HEPES pH 7.5, 100 mM NaCl, 1 mM DTT, 1 mM EDTA, 12% glycerol, 20 µg/ml poly(dI)-poly(dC), room temperature 20 min, protein translated in vitro, residues 182-431, label: 32P 5' end"}, "[1]": {"biological_target": "Foxp1A full length (mouse) (UniProt P58462)", "details": "12 mM HEPES pH 7.5, 100 mM NaCl, 1 mM DTT, 1 mM EDTA, 12% glycerol, 20 µg/ml poly(dI)-poly(dC), room temperature 20 min, protein translated in vitro, protein details: HA, label: 32P 5' end"}, "FOXP3 ΔN121 (human)": {"biological_target": "FOXP3 ΔN121 (human) (UniProt Q9BZS1)", "details": "legend: A'(A1-A1), text: spacing-optimized A'; 12 mM HEPES pH 7.5, 100 mM NaCl, 1 mM DTT, 1 mM EDTA, 12% glycerol, 20 µg/ml poly(dI)-poly(dC), room temperature 20 min; protein translated in vitro; residues 122-431; label: 32P 5' end"}, "FOXP3-ΔN ΔFKH (human)": {"biological_target": "FOXP3-ΔN ΔFKH (human) (UniProt Q9BZS1)", "details": "12 mM HEPES pH 7.5, 100 mM NaCl, 1 mM DTT, 1 mM EDTA, 12% glycerol, 20 µg/ml poly(dI)-poly(dC), room temperature 20 min; protein translated in vitro; label: 32P 5' end"}, "FOXP3-ΔN C204S (human)": {"biological_target": "FOXP3-ΔN C204S (human) (UniProt Q9BZS1)", "details": "12 mM HEPES pH 7.5, 100 mM NaCl, 1 mM DTT, 1 mM EDTA, 12% glycerol, 20 µg/ml poly(dI)-poly(dC), room temperature 20 min; protein translated in vitro; residues 182-431; label: 32P 5' end"}}, "note": "For some assays here: The comparison behind a weaker result is the experiment's own reference, which may not be listed here. Construct, isoform or probe ends are uncertain for at least one entry. For some assays here: A negative result means that nothing was seen under these conditions. For some assays here: At least one verdict rests on a figure or table, not on a statement of the authors. For some assays here: The direction of at least one scale is not stated here."}
{"sequence": "CAAGACAAACAAGACAACACAAACAA (double strand) [A' (AC)]", "values": [{"measurement": "binding result", "setting": "Foxp1-ΔN (mouse)", "result": "binds more weakly"}, {"measurement": "binding result", "setting": "FOXP3-ΔN (human); below AT", "result": "binds more weakly"}, {"measurement": "binding result", "setting": "[1]", "result": "binds more weakly"}]}
{"sequence": "CAAGACAAATAAGACAACACAAATAA (double strand) [A'' (A2-A2)]", "values": [{"measurement": "binding result", "setting": "Foxp1-ΔN (mouse)", "result": "binds more weakly"}, {"measurement": "binding result", "setting": "[1]", "result": "binds more weakly"}]}
{"sequence": "CAAGATAAACAAGACAACATAAACAA (double strand) [A' (AT)]", "values": [{"measurement": "binding result", "setting": "Foxp1-ΔN (mouse)", "result": "binds more weakly"}, {"measurement": "binding result", "setting": "[1]", "result": "binds more weakly"}]}
{"sequence": "CAAGGCAAACAAGACAACGCAAACAA (double strand) [A' (GC)]", "values": [{"measurement": "binding result", "setting": "Foxp1-ΔN (mouse); very weak", "result": "binds more weakly"}, {"measurement": "binding result", "setting": "[1]; very weak", "result": "binds more weakly"}]}
{"sequence": "CAAGGTAAACAAGACAACACAAATAA (double strand) [A (A1-A2)]", "values": [{"measurement": "binding result", "setting": "Foxp1-ΔN (mouse); more than full-length Foxp1", "result": "binds"}, {"measurement": "binding result", "setting": "FOXP3-ΔN (human); weaker than Foxp1, less than half of A'", "result": "binds more weakly"}]}
{"sequence": "CAAGGTAAACAAGACAACACGATTGTAAACAAGTC (double strand) [A' (35 bp), 20-bp spacing]", "values": [{"measurement": "binding result", "setting": "Foxp1-ΔN (mouse); somewhat preferred over 14-bp spacing", "result": "binds"}]}
{"sequence": "CAAGGTAAACAAGACAACGTAAACAA (double strand) [A' (A1-A1)]", "values": [{"measurement": "binding result", "setting": "Foxp1-ΔN (mouse); enhanced versus A", "result": "binds"}, {"measurement": "binding result", "setting": "FOXP3 ΔN121 (human)", "result": "binds more weakly"}, {"measurement": "binding result", "setting": "[1]", "result": "binds"}]}
{"sequence": "CAAGGTAAACAAGACAACGTAAACAAGTC (double strand) [A' (29 bp), 14-bp spacing]", "values": [{"measurement": "binding result", "setting": "Foxp1-ΔN (mouse)", "result": "binds"}, {"measurement": "binding signal (fold (reference))", "setting": "FOXP3-ΔN (human)", "result": 1}]}
{"sequence": "CAAGGTAAACAAGAGTAAACAAGTC (double strand) [A' (25 bp), 10-bp spacing]", "values": [{"measurement": "binding result", "setting": "Foxp1-ΔN (mouse)", "result": "binds more weakly"}, {"measurement": "binding result", "setting": "FOXP3-ΔN ΔFKH (human)", "result": "no binding"}, {"measurement": "binding result", "setting": "FOXP3-ΔN C204S (human)", "result": "binds"}]}
